PubChem BioAssay AID652259 – Drosophila RNAi Screening Center | 2013
In all, the deposit lists about 22,000 reagents; below is a random part of those with a known target gene and a result. Over the whole deposit, 233 (1.1%) were called active. 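Light values are raw, unnormalised plate reads; the ratio scores behind the reporter calls were not deposited.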 Unmarked entries are inactive. A plus sign joins genes that one reagent is predicted to hit. No sequences are given here. The record does not give: the amount of reagent, the time to read-out, the dose of the treatment.

Aim: 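Genome-wide hunt for genes that control Wingless pathway activity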 (primary screen)
System: Drosophila clone 8 imaginal disc epithelial cells
Reagents: long dsRNA against Drosophila genes
Treatment: pathway stimulated by co-transfected Wingless expression plasmid
Measured: 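Dual luciferase reads per well after Wingless plasmid stimulation: reporter firefly light and Renilla control light; activity is firefly divided by Renilla, a ratio not deposited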
Scale: firefly reporter light: higher = more Wg reporter light, before normalisation; Renilla control light: higher = more transfected or surviving cells
Rule for the call: 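a knock-down is a candidate when at least two out of four statistical tests show it departing from its plate mean; one test alone signals a weak candidate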
Meaning of the calls: active = candidate regulator (raises or lowers reporter); inactive = not a candidate

The opening 6 entries as a preview:
no.	target	amplicon	firefly reporter light, replicate 1	firefly reporter light, replicate 2	Renilla control light, replicate 1	Renilla control light, replicate 2
1	CG32987	DRSC22373	6.80e5	7.93e5	2.62e5	3.01e5
2	Gr36b (Gustatory receptor 36b)	DRSC21637	5.40e5	5.53e5	2.98e5	2.03e5
3	CG14518	DRSC14870	7270		3387	
4	CG7255	DRSC10790	2551		1426	
5	msi (musashi)	DRSC17003	23943		13876	
6	BTBD9 (BTB (POZ) domain containing 9)	DRSC18148	24898		12005	

Main list, from the start:
no.	target	amplicon	firefly reporter light, replicate 1	firefly reporter light, replicate 2	Renilla control light, replicate 1	Renilla control light, replicate 2
1	CG32987	DRSC22373	6.80e5	7.93e5	2.62e5	3.01e5
2	Gr36b (Gustatory receptor 36b)	DRSC21637	5.40e5	5.53e5	2.98e5	2.03e5
3	CG14518	DRSC14870	7270		3387	
4	CG7255	DRSC10790	2551		1426	
5	msi (musashi)	DRSC17003	23943		13876	
6	BTBD9 (BTB (POZ) domain containing 9)	DRSC18148	24898		12005	
7	BTBD9 (BTB (POZ) domain containing 9)	DRSC22371	9.45e5	8.90e5	2.79e5	2.49e5
8	Phyhd1 (Phytanoyl-CoA dioxygenase domain containing 1)	DRSC14911	21393		4045	
9	CG2991	DRSC00559	9292		4284	
10	Ssdp (Sequence-specific single-stranded DNA-binding protein)	DRSC16211	6691		1520	
11	CtsF (Cathepsin F)	DRSC12056	2352		1539	
12	CtsF (Cathepsin F)	DRSC12195	4233		989	
13	CtsF (Cathepsin F)	DRSC12196	8376		1338	
14	cav (caravaggio)	DRSC15995	2419	3536	1282	1434
15	rumi	DRSC15177	3222	7045	900	1321
16	Vsx2 (Visual system homeobox 2)	DRSC17397	2465		736	
17	Vsx2 (Visual system homeobox 2)	DRSC18087	13328		3728	
18	Vsx2 (Visual system homeobox 2)	DRSC18088	16752		7744	
19	Vsx2 (Visual system homeobox 2)	DRSC18089	28304		12916	
20	GatA (Glutamyl-tRNA amidotransferase, subunit A)	DRSC16956	2179	6603	465	2410
21	CG1951	DRSC15403	2096	6250	1507	899
22	CG14421	DRSC17918	26032		15765	
23	Mtl (Mig-2-like)	DRSC16751	8812		3714	
24	Acox3 (Acyl-CoA oxidase 3)	DRSC03251	3276	6564	547	585
25	CG4942	DRSC10462	7495		2907	
26	CG14589	DRSC04866	2484	6344	898	2541
27	FipoQ (F-box involved in polyQ pathogenesis)	DRSC15413	2810	6392	867	1824
28	CG15293	DRSC01919	2322	6636	1200	2797
29	fng (fringe)	DRSC11455	3208		1669	
30	fng (fringe)	DRSC11887	2432		1404	
31	fng (fringe)	DRSC21935	4.49e5	4.10e5	1.81e5	1.84e5
32	CG30015	DRSC05241	22267		13840	
33	CG30015	DRSC07027	15936		2261	
34	CG30015	DRSC07028	2185	6181	744	2128
35	Cyp6a8 (Cytochrome P450 6a8)	DRSC07384	15388		4819	
36	Dyrk2 (Dual-specificity tyrosine phosphorylation-regulated kinase 2)	DRSC03610	6396		1411	
37	tnc (tenectin)	DRSC14647	18262		14081	
38	corolla	DRSC20102	2281	6880	779	2509
39	BomT2 (Bomanin Tailed 2)	DRSC06631	7636		3555	
40	CG2202	DRSC19841	5113	12123	1821	4357
41	Mtap (Methylthioadenosine phosphorylase)	DRSC06890	17091		6364	
42	CG15385	DRSC00399	2596	5837	1057	2912
43	Atg4a (Autophagy-related 4a)	DRSC00656	10102		3348	
44	Pdha (Pyruvate dehydrogenase E1 alpha subunit)	DRSC18413	23568		9529	
45	kumpel (kin of rumpel)	DRSC14883	25826		18896	
46	kumpel (kin of rumpel)	DRSC16459	19016		13546	
47	kumpel (kin of rumpel)	DRSC16460	27401		23306	
48	kumpel (kin of rumpel)	DRSC16461	19220		17308	
49	kumpel (kin of rumpel)	DRSC16462	17286		16712	
50	kumpel (kin of rumpel)	DRSC16463	18732		19488	
51	DopEcR (Dopamine/Ecdysteroid receptor)	DRSC08529	3815		1498	
52	Tsp66A + CG42661 + CG42660	DRSC10233	2426	10457	1429	4141
53	Dlish (Dachs ligand with SH3s)	DRSC06016	10098		3491	
54	TwdlK (TweedleK)	DRSC16045	4519		1595	
55	CG9795	DRSC12336	11594		3002	
56	ProRS-m (Prolyl-tRNA synthetase, mitochondrial)	DRSC08261	5281		1383	
57	Mst84Db (Male-specific RNA 84Db)	DRSC12542	20429		4498	
58	Mst84Db (Male-specific RNA 84Db)	DRSC12598	14758		3896	
59	CG34256	DRSC09582	7792		876	
60	CG17636	DRSC20648	16277		8920	
61	hoe1 (hoepel1)	DRSC00265	7177		3517	
62	hoe1 (hoepel1)	DRSC00333	3397	6876	1088	1130
63	hoe1 (hoepel1)	DRSC00353	3860	8544	954	992
64	CG14321	DRSC14800	16193		2555	
65	CG9706	DRSC11095	4809		2198	
66	ND-24 (NADH dehydrogenase (ubiquinone) 24 kDa subunit)	DRSC19960	3168	8485	1201	3408
67	Eip63F-1 (Ecdysone-induced protein 63F 1)	DRSC08072	3953		1936	
68	Eip63F-1 (Ecdysone-induced protein 63F 1)	DRSC08659	10121		5148	
69	Dis3	DRSC16034	2705	4941	1082	1545
70	Lac (Lachesin)	DRSC07452	6775		2861	
71	park (parkin)	DRSC11618	3011		1293	
72	CG18754	DRSC15387	13357		5821	
73	CG5327	DRSC06930	5658		2219	
